# Source: US9108944B2, “Androgen receptor modulators and uses thereof” (ARAGON PHARMACEUTICALS, INC., priority 2010, dated 2015)
# For some of these results: At least one compound was matched to its structure with a doubt left. Some of these results come from one statement about several compounds together.
# System: GABA-gated C1-Channel
# Assay: GABA-Gated C1-Channel Antagonist Radioligand Binding Assay
# Conditions: at 10 μM; 3 nM [35S]-TBPS; membrane homogenates of cerebral cortex
row,SMILES,inhibition in the GABA-gated C1-Channel Binding Assay (percent inhibition of the control radioligand specific binding)
1,"N#Cc1ncc(N2C(=O)C3(CCC3)N(c3ccc(OC4CCN(CCO)CC4)cc3)C2=S)cc1C(F)(F)F [Compound 218, 5-(5-(4-((1-(2-hydroxyethyl)piperidin-4-yl)oxy)phenyl)-8-oxo-6-thioxo-5,7-diazaspiro[3.4]octan-7-yl)-3-(trifluoromethyl)picolinonitrile]",less than 65%
2,"CN1CCN(CCCc2ccc(N3C(=S)N(c4cnc(C#N)c(C(F)(F)F)c4)C(=O)C34CCC4)cc2)CC1 [Compound 124, 5-(5-(4-(3-(4-Methylpiperazin-1-yl)propyl)phenyl)-8-oxo-6-thioxo-5,7-diazaspiro[3.4]octan-7-yl)-3-(trifluoromethyl)picolinonitrile]",less than 65%
3,"COCCOc1ccc(N2C(=S)N(c3ccc(C#N)c4ncccc34)C(=O)C23CCC3)cc1F [Compound 171, 5-(5-(3-Fluoro-4-(2-methoxyethoxy)phenyl)-8-oxo-6-thioxo-5,7-diazaspiro[3.4]octan-7-yl)quinoline-8-carbonitrile]",less than 65%
4,"N#Cc1ncc(N2C(=O)C3(CCC3)N(c3ccc(C(=O)NCCCN4CCOCC4)c(F)c3)C2=S)cc1C(F)(F)F [Compound 268, 4-(7-(6-Cyano-5-(trifluoromethyl)pyridin-3-yl)-8-oxo-6-thioxo-5,7-diazaspiro[3.4]octan-5-yl)-2-fluoro-N-(3-morpholinopropyl)benzamide]",less than 65%
5,"N#Cc1ncc(N2C(=O)C3(CCC3)N(c3ccc(-c4ccccc4)cc3)C2=S)cc1C(F)(F)F [Compound 13, 5-(5-([1,1′-Biphenyl]-4-yl)-8-oxo-6-thioxo-5,7-diazaspiro[3.4]octan-7-yl)-3-(trifluoromethyl)picolinonitrile]",less than 65%
6,"N#Cc1ncc(N2C(=O)C3(CCC3)N(c3ccc(Oc4ccncn4)cc3)C2=S)cc1C(F)(F)F [Compound 208, 5-(8-Oxo-5-(4-(pyrimidin-4-yloxy)phenyl)-6-thioxo-5,7-diazaspiro[3.4]octan-7-yl)-3-(trifluoromethyl)picolinonitrile]",less than 65%

# Target: T1, AR-VP16 (Homo sapiens, UniProt P10275)
# T1 sequence (P10275 560-920 limits assumed): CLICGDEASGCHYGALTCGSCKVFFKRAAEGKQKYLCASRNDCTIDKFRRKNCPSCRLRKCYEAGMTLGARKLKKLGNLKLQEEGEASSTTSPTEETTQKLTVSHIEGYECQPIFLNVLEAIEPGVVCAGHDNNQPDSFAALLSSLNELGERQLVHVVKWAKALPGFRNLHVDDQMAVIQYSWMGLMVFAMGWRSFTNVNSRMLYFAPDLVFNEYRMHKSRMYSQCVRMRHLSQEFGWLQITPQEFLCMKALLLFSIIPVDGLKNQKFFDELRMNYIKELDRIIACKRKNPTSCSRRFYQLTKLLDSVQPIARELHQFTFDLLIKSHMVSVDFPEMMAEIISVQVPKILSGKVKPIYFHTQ
# Assay: AR-VP16 DNA Binding Assay, agonist mode (HepG2 cells)
# Format: cell-based
# Conditions: not given
row,SMILES,ARVP16 DNA Binding Assay (Agonist mode): Agonist?
1,"CC(C)CCNC(=O)c1ccc(N2C(=S)N(c3cnc(C#N)c(C(F)(F)F)c3)C(=O)C23CCC3)cc1F [Compound 282, 4-(7-(6-Cyano-5-(trifluoromethyl)pyridin-3-yl)-8-oxo-6-thioxo-5,7-diazaspiro[3.4]octan-5-yl)-2-fluoro-N-isopentylbenzamide]",No
2,"CC(C)(O)CNC(=O)c1ccc(N2C(=S)N(c3cnc(C#N)c(C(F)(F)F)c3)C(=O)C23CCC3)cc1F [Compound 285, 4-(7-(6-Cyano-5-(trifluoromethyl)pyridin-3-yl)-8-oxo-6-thioxo-5,7-diazaspiro[3.4]octan-5-yl)-2-fluoro-N-(2-hydroxy-2-methylpropyl)benzamide]",No
3,"N#Cc1ncc(N2C(=O)C3(CCC3)N(c3ccc(C(=O)NCc4ccccn4)c(F)c3)C2=S)cc1C(F)(F)F [Compound 264, 4-(7-(6-Cyano-5-(trifluoromethyl)pyridin-3-yl)-8-oxo-6-thioxo-5,7-diazaspiro[3.4]octan-5-yl)-2-fluoro-N-(pyridin-2-ylmethyl)benzamide]",No
4,"N#Cc1ncc(N2C(=O)C3(CCC3)N(c3ccc(C(=O)NCc4cccnc4)c(F)c3)C2=S)cc1C(F)(F)F [Compound 265, 4-(7-(6-Cyano-5-(trifluoromethyl)pyridin-3-yl)-8-oxo-6-thioxo-5,7-diazaspiro[3.4]octan-5-yl)-2-fluoro-N-(pyridin-3-ylmethyl)benzamide]",No
